The other results are listed elsewhere or left out. Values are raw readings; no control value is given beside them.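 Primary screen: polymyxin B was added at a level permeabilizing Salmonella outer membranes while sparing inner membranes. DMSO wells, both with and without polymyxin B, established maximum growth. Plate-to-plate variation meant each plate was ranked on its own, and the lowest-OD600 compounds were selected as hits.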

The values that follow come from the supplement of paper PMC12889115.

For this test, the system named is Salmonella enterica serovar Typhimurium SL1344. The test is described as follows: bacterial growth OD600 after 18 h with compound and polymyxin B; higher = more bacterial growth (less inhibition). Conditions: 50 µM, Mueller-Hinton broth.

`CN(CC1Cc2ccccc2O1)C(=O)CCn1nnnc1CN1CCOCC1` (stereo not given): where the note is “polymyxin B 1 µg/mL”, the “bacterial growth OD600” value came out at 1.16. On the same count and under the same terms, under `O=C(CCC(=O)c1ccc(F)cc1)NC1CCCN(Cc2ccccc2F)C1` (stereo not given) stands 0.969. In the case of `COCCn1cnc2cc(NC(=O)C3CCCCC3)cc(C(=O)NCCSc3nncn3C)c21`, the “bacterial growth OD600” value (polymyxin B 0.75 µg/mL) is 0.976.

With `O=C(CC1(c2cccc(C(F)(F)F)c2)CC(=O)N(C2CC2)C1=O)N1CCCCC1c1cccnc1` (stereo not given), the “bacterial growth OD600” value (polymyxin B 0.75 µg/mL) came out at 0.856. Consider `CN(CC1CCN(CCc2ccccc2F)CC1)C(=O)c1ccc2ncccc2c1`, for which, under “polymyxin B 1 µg/mL”, the “bacterial growth OD600” value turned out to be 0.735. With `CN(CC1CCCN(CCc2ccc(Cl)cc2)C1)C(=O)c1ccc(F)cc1` (stereo not given), the “bacterial growth OD600” value (polymyxin B 1 µg/mL) worked out at 0.777. Same read-out and setting: for `O=C(CCc1cn[nH]c1)N1CCCC(CCc2ccccc2F)C1` (stereo not given) the value was 0.885; for `COc1cccc(CN2CCCC(O)(CN3CCCCC3)C2=O)c1` (stereo not given), 0.754; for `C=CCNC(=O)c1coc(COc2ccc(OC)cc2)n1`, 0.923.

With `O=C(CCC1CCN(Cc2ccoc2)CC1)Nc1ccccc1Cl`, the “bacterial growth OD600” value (polymyxin B 1 µg/mL) is 0.767.

Take `Cc1cnc(CNCC2(O)CCCN(Cc3cccc(F)c3F)C2=O)cn1` (stereo not given): the “bacterial growth OD600” value (polymyxin B 0.75 µg/mL) is 0.935. With `COc1ccc(NC(=O)N2CCCC(Nc3ccc(C)c(C)c3)C2)c(OC)c1` (stereo not given), under “polymyxin B 1 µg/mL”, the “bacterial growth OD600” value came to 0.822.

For `O=C(Nc1cccc(-c2ccc(F)cc2)c1)C1CCCN(Cc2cccnc2)C1` (stereo not given), the “bacterial growth OD600” value (polymyxin B 1 µg/mL) was determined as 0.008. The same measure, in the same setting: for `COCCN(Cc1nc(-c2ccc(OC)c(OC)c2OC)no1)C(C)C` the value was 1.19.

As to `COc1ccccc1C1CN(Cc2ccc(OCCO)cc2)Cc2ccccc2O1` (stereo not given), the “bacterial growth OD600” value (polymyxin B 0.75 µg/mL) is 0.005. Same read-out and setting: for `COc1ccc(CC2(CCC(=O)NC(c3ccccn3)C(F)(F)F)CCC(=O)N2)c(F)c1` (stereo not given) the value was 0.872; for `COc1cccc(CN(C)Cc2nc(-c3ccccc3C)oc2C)c1`, 0.01; for `O=C(/C=C/c1cccc(F)c1)N1CCC(C2(c3ccccn3)NC(=O)N(CC3CCCO3)C2=O)CC1` (stereo not given), 0.913. For the compound `CC(C)c1ccc(NC2CCCN(C(=O)CCN3Cc4ccccc4C3=O)C2)cc1` (stereo not given), the “bacterial growth OD600” value (polymyxin B 1 µg/mL) is 0.576. On to `Cc1ccccc1CC(C1CCN(C(=O)c2ccc3ccccc3c2)CC1)N(C)C(=O)Cn1cccn1` (stereo not given), for which the “bacterial growth OD600” value (polymyxin B 0.75 µg/mL) turned out to be 0.812.
